{
  "source": "patent US6680295B1",
  "about": "“Method and pharmaceutical composition for prevention and treatment of brain damage” (priority 1994, dated 2004)",
  "origin": "cited, not measured here",
  "test_system": "intracellular calcium in neurons and astrocytes",
  "conditions": "cited from earlier work",
  "note": "Some of these results come from one statement about several compounds together.",
  "data": [
    {"substance": "VIP: vasoactive intestinal peptide", "values": [
      {"measurement": "concentrations producing increase in intracellular calcium", "value": "1 to 100", "unit": "pM"}
    ]}
  ]
}
